Assay results: PMC10401002
No constants are given. Whether binding was seen depends on the method and setting. Some results given as binding are weak or reduced against the parent protein; the word gives no strength.

Amino acid sequences for entries named in this document (tags omitted). A change or cut given only in a name is not applied to a line headed by its entry.
UniProt P04406: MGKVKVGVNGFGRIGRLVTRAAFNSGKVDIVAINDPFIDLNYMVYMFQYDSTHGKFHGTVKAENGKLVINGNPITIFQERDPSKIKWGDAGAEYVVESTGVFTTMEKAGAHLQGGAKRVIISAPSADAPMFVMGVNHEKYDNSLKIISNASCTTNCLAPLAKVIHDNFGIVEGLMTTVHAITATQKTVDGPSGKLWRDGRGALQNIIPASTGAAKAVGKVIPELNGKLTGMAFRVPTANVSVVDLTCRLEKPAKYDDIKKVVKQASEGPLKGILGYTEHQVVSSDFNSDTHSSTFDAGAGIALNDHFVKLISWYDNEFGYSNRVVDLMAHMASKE

Molecular target: recombinant human GAPDH A183W with C-terminal eGFP (human) (UniProt P04406)
Assay: SEC; fluorescence-detection SEC of lysate (DDM/CHS) of transfected cells, Superdex 200 Increase 10/300 GL in TBS, GFP signal

binding: binds
Substance: recombinant human GAPDH A183W with C-terminal eGFP (from UniProt P04406 1-335) (enzyme)
